Assay results as given in the supplement of paper PMC10849652.
This is one part of the list.

Protein sequences, listed by entry. Tags and fused reporters are not part of them. Lines headed by an entry give the natural chain unless they say otherwise; changes in a name come on top.
UniProt Q76FK4: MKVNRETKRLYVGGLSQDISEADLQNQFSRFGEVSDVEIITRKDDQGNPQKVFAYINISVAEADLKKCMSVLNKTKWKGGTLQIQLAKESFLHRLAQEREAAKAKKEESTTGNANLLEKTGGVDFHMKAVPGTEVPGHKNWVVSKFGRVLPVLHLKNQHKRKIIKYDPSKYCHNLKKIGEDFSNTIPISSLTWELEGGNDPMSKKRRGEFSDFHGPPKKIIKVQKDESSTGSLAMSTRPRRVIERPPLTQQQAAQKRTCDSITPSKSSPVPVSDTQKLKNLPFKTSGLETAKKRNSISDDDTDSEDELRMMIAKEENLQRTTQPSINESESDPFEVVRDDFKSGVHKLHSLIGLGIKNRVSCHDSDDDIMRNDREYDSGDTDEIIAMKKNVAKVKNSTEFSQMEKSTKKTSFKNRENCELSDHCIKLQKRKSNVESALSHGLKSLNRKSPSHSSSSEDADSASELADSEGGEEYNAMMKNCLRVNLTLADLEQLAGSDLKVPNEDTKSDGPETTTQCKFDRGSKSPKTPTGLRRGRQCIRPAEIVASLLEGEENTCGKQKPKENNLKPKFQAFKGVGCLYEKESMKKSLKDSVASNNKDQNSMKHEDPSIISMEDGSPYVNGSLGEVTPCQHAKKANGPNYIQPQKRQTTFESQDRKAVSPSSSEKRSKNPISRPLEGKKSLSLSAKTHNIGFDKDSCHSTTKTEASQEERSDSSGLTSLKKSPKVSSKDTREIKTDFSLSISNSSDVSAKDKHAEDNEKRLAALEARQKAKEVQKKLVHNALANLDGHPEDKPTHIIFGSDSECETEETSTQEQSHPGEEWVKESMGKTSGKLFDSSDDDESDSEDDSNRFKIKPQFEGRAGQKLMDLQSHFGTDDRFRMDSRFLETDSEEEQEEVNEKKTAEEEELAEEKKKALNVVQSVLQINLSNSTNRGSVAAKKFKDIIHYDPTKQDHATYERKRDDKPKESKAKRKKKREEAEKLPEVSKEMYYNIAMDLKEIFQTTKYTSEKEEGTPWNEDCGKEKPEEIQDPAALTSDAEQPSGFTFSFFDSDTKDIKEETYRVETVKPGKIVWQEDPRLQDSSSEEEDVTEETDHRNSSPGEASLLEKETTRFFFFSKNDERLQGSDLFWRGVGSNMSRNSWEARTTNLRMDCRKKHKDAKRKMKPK
UniProt Q8NE18: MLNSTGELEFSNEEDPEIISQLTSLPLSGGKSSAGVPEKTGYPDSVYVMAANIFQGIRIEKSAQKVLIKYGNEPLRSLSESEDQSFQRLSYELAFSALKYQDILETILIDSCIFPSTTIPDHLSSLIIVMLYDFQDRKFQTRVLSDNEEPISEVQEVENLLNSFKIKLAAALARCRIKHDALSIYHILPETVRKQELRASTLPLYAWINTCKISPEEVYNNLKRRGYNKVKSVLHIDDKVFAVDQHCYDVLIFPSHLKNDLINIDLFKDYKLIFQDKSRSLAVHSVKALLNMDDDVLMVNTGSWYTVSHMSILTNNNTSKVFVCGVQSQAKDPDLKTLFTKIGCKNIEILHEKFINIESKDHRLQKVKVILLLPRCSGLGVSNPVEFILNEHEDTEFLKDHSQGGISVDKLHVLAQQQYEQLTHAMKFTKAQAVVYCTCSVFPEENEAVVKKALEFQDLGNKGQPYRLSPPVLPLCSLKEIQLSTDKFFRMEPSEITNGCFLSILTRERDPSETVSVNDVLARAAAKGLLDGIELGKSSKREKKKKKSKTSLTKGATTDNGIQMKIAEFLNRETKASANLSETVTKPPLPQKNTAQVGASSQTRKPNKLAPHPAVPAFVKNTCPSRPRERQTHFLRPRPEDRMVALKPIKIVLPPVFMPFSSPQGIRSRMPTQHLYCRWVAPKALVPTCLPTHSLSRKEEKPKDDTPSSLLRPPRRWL
UniProt Q9ULX3: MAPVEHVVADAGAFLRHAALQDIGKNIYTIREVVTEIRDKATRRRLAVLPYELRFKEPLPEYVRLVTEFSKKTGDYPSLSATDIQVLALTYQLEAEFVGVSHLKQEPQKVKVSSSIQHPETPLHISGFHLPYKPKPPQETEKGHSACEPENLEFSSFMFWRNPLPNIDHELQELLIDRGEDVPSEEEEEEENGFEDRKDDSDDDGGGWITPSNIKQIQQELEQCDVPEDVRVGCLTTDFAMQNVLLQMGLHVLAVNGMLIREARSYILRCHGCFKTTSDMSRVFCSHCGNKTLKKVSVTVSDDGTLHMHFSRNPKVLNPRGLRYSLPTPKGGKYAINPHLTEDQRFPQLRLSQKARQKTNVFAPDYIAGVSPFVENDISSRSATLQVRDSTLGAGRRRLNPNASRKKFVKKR
UniProt Q9NQ35: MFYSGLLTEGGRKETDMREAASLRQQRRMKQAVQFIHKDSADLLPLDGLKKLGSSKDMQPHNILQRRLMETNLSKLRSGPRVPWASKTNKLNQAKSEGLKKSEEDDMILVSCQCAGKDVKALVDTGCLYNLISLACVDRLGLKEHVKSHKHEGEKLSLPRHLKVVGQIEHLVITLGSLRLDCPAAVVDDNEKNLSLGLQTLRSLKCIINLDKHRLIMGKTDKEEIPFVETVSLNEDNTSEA
UniProt Q8TCD5: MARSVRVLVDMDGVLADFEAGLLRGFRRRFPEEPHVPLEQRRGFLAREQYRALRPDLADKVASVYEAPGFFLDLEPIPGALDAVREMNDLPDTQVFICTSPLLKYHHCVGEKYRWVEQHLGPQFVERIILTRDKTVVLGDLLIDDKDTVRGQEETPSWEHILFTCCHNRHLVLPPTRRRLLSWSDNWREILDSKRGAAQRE
UniProt Q6ZVK8: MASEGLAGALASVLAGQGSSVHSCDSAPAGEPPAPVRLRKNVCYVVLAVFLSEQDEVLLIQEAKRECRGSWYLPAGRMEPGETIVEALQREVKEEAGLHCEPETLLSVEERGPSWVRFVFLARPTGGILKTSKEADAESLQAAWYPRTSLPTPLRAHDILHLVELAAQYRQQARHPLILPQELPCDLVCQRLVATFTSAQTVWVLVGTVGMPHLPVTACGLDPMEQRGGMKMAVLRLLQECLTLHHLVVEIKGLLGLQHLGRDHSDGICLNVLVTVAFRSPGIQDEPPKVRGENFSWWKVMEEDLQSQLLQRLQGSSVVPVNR
UniProt O60936: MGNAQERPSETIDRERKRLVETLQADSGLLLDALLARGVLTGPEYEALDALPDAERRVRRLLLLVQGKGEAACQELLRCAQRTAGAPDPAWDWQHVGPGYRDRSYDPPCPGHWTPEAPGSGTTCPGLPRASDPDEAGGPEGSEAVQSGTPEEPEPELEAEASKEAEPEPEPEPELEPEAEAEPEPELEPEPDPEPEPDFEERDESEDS
UniProt Q9H0G5: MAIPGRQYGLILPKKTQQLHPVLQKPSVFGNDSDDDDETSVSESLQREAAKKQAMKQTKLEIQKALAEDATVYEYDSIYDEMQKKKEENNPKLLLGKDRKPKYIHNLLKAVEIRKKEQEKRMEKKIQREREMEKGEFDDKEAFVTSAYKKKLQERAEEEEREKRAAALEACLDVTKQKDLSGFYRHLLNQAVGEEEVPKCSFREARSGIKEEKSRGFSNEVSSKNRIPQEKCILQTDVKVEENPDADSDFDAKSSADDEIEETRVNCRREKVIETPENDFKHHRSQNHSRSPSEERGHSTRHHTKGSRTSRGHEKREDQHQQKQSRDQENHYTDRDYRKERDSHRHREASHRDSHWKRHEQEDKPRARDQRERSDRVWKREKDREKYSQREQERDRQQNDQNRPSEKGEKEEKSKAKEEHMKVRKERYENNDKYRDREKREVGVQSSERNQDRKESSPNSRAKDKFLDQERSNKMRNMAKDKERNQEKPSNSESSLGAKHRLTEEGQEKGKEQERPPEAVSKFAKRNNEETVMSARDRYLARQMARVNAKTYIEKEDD
UniProt O96028: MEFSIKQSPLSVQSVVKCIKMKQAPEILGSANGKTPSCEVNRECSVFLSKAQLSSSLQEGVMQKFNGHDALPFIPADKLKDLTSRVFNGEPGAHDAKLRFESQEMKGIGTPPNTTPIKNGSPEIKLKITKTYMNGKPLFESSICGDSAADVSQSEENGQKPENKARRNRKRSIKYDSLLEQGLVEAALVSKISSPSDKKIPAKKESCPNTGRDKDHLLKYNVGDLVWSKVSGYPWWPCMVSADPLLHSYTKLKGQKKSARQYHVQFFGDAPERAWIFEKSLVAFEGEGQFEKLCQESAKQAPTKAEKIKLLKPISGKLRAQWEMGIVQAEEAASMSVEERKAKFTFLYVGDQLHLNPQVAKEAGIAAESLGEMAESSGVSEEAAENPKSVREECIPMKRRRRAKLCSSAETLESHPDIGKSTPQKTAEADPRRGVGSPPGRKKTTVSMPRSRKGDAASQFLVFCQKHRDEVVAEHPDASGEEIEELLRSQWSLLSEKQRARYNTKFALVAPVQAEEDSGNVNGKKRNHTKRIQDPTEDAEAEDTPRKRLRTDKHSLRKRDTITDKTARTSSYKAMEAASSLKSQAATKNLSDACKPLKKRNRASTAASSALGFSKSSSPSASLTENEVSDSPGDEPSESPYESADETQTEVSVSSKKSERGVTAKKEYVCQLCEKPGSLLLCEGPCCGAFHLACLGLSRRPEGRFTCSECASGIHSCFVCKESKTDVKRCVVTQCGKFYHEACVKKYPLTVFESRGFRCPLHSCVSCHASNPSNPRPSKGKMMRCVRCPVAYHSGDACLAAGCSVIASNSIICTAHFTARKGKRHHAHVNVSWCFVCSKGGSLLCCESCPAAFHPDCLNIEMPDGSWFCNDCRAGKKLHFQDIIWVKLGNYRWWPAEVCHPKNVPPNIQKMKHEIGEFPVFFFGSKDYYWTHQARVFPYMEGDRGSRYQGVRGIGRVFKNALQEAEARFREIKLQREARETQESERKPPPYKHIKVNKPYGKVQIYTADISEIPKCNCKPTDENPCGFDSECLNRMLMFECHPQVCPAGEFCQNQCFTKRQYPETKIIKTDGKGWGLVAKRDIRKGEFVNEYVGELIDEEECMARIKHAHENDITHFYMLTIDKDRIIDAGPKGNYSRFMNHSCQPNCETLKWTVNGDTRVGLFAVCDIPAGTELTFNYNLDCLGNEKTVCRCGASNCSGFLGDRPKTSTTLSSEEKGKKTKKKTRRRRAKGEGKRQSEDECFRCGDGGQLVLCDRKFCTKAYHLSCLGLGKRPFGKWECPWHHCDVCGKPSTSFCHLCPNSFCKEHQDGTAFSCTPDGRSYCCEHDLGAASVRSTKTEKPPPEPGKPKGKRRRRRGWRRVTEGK
UniProt Q8WV74: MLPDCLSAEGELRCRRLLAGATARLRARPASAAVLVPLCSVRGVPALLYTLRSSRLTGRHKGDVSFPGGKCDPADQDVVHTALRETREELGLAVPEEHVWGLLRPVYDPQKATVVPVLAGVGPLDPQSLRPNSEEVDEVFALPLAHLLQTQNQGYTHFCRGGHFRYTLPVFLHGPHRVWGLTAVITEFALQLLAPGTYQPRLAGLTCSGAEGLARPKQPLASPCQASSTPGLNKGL
UniProt Q9Y5A7: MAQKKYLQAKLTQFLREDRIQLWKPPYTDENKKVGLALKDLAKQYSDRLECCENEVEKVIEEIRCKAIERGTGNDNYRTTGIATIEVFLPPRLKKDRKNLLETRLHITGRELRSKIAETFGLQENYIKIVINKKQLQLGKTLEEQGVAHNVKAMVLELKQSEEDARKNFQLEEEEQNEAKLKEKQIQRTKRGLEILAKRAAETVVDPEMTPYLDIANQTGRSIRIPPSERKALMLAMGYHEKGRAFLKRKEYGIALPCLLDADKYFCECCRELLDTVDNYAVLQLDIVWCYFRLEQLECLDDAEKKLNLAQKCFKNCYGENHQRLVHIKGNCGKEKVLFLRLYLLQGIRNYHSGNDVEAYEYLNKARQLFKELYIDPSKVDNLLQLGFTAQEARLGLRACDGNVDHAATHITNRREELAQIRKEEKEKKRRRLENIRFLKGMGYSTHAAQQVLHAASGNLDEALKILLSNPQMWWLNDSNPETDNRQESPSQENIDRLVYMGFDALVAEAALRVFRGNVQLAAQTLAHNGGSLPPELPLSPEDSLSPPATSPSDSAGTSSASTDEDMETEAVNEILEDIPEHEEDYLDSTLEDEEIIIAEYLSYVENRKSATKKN
UniProt P10588: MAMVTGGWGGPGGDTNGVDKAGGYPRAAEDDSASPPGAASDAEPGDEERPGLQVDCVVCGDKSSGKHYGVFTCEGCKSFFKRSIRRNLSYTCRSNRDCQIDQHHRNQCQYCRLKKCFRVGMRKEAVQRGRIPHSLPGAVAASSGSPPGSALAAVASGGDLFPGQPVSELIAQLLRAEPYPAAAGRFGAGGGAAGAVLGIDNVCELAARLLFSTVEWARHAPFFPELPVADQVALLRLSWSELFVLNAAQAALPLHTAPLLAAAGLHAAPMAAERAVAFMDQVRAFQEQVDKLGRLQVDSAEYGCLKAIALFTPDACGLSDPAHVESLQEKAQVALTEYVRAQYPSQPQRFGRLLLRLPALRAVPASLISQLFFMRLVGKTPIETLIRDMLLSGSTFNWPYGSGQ

Key:
Assay in all cases: log2 fold change, soluble protein after heating vs DMSO (PISA); higher = thermal stabilisation; K562 lysate, 10 uM; active = over 0.2 and 3.5 SD of the protein, either way, in both replicates (recomputed)
vemurafenib = compound: CCCS(=O)(=O)Nc1ccc(F)c(C(=O)c2c[nH]c3ncc(-c4ccc(Cl)cc4)cc23)c1F [vemurafenib]
Method in brief: (§1)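 Soluble protein was defined as the supernatant remaining after 21,000xg for 90 min, following pooling of heated aliquots and adjustment to 0.5% NP-40 at 4°C. Before that, crude K562 extract at 1 mg/mL protein in PBS pH 7.4 with 1 mM MgCl2 was treated with 10 μM compound for 30 min and heated for 3 min across 48°C-58°C. Quantification used TMTpro 16plex LC-MS/MS with channel sums equalised, and values are log-two fold changes in thermal stability relative to solvent controls from duplicates.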

[1] = compound: CCCS(=O)(=O)Nc1ccc(F)c(C(=O)c2c[nH]c3ncc(Cl)cc23)c1F
Method in brief: as §1

volasertib = compound: CC[C@@H]1C(=O)N(C)c2cnc(Nc3ccc(C(=O)N[C@H]4CC[C@H](N5CCN(CC6CC6)CC5)CC4)cc3OC)nc2N1C(C)C [volasertib]
Method in brief: as §1

[2] = compound: CCn1c(C(=O)N(C2CC2)C2CC2)cc2c3c(ncn3C)c(Nc3cc(C)n(C)n3)nc21
Method in brief: as §1

[3] = compound: CCn1cc(-c2ccnc3[nH]c(-c4cccc(CN(C)C)c4)cc23)c(-c2ccc(NC(=O)N(C)C)cc2)n1
Method in brief: as §1

[4] = compound: CN1CCC(CNc2ccc3ncc(-c4cccc(OC(F)(F)F)c4)n3n2)CC1
Method in brief: as §1

saracatinib = compound: CN1CCN(CCOc2cc(OC3CCOCC3)c3c(Nc4c(Cl)ccc5c4OCO5)ncnc3c2)CC1 [saracatinib]
Method in brief: as §1

sotrastaurin = compound: CN1CCN(c2nc(C3=C(c4c[nH]c5ccccc45)C(=O)NC3=O)c3ccccc3n2)CC1 [sotrastaurin]
Method in brief: as §1

alvocidib = compound: CN1CC[C@H](c2c(O)cc(O)c3c(=O)cc(-c4ccccc4Cl)oc23)[C@H](O)C1 [alvocidib]
Method in brief: as §1

Tubastatin A = compound: CN1CCc2c(c3ccccc3n2Cc2ccc(C(=O)NO)cc2)C1 [Tubastatin A]
Method in brief: as §1

[5] = compound: CNC(=O)C1=CC=CC=C1NC2=NC(=NC=C2Cl)NC3=C(C=C(C=C3)N4CCOCC4)OC
Method in brief: as §1

defactinib = compound: CNC(=O)c1ccc(Nc2ncc(C(F)(F)F)c(NCc3nccnc3N(C)S(C)(=O)=O)n2)cc1 [defactinib]
Method in brief: as §1

[6] = compound: CNc1nc(-c2ccc3c(N)n[nH]c3c2)cc(N2C[C@@H](C(=O)NC3CCCCC3)CC[C@H]2C)n1
Method in brief: as §1

[7] = compound: COc1cc2nc(-c3cc(F)ccc3O)nc(N[C@@H]3CNC[C@H]3C(C)(C)O)c2cc1OC
Method in brief: as §1

[8] = compound: CC[C@@H]1C(=O)N(C)c2cnc(Nc3ccc(C(=O)NC4CCN(C)CC4)cc3OC)nc2N1C1CCCC1
Method in brief: as §1

encorafenib = compound: COC(=O)N[C@@H](C)CNc1nccc(-c2cn(C(C)C)nc2-c2cc(Cl)cc(NS(C)(=O)=O)c2F)n1 [encorafenib]
Method in brief: as §1

[9] = compound: COC(=O)[C@H](CCSC)NC(=O)C1=C(C=C(C=C1)NC[C@H](CS)N)C2=CC=CC=C2
Method in brief: as §1

alisertib = compound: COc1cc(Nc2ncc3c(n2)-c2ccc(Cl)cc2C(c2c(F)cccc2OC)=NC3)ccc1C(=O)O [alisertib]
Method in brief: as §1

gefitinib = compound: COc1cc2ncnc(Nc3ccc(F)c(Cl)c3)c2cc1OCCCN1CCOCC1 [gefitinib]
Method in brief: as §1

barasertib = compound: CCN(CCCOc1ccc2c(Nc3cc(CC(=O)Nc4cccc(F)c4)[nH]n3)ncnc2c1)CCOP(=O)(O)O [barasertib]
Method in brief: as §1

Measured: log2 fold change

NOL8 (UniProt Q76FK4)
inactive: vemurafenib 0.113 | [1] -0.087 | volasertib -0.04 | [2] 0.073 | [3] -0.207 | [4] -0.1 | saracatinib -0.053 | sotrastaurin 0.023 | alvocidib 0.004 | Tubastatin A -0.041 | [5] 0.105 | defactinib -0.099 | [6] 0.049 | [7] 0.115

NUDT22 (UniProt Q9BRQ3)
inactive: vemurafenib -0.11 | [1] 0.036 | [8] -0.075 | volasertib 0.004 | sotrastaurin -0.027 | [5] 0.241 | defactinib 0.029 | encorafenib 0.072 | [9] 0.071 | alisertib -0.022 | [7] 0.005 | gefitinib -0.019

NSUN7 (UniProt Q8NE18)
inactive: vemurafenib -0.098 | [1] -0.046 | barasertib -0.084 | [8] -0.016 | volasertib 0.077 | [2] -0.049 | [3] -0.039 | [4] -0.032 | sotrastaurin 0.017 | alvocidib -0.191 | Tubastatin A 0.176 | [5] -0.001 | defactinib -0.035 | encorafenib 0.21 | [9] -0.026 | [7] -0.006

NOB1 (UniProt Q9ULX3)
inactive: vemurafenib -0.002 | [1] 0.032 | barasertib -0.053 | [8] -0.045 | volasertib -0.02 | [2] -0.003 | [4] -0.102 | saracatinib 0.018 | sotrastaurin -0.009 | alvocidib 0.077 | Tubastatin A -0.129 | [5] -0.005 | defactinib 0 | [6] -0.011 | encorafenib 0.036 | [9] 0.037 | alisertib 0.047 | [7] -0.031 | gefitinib -0.022
active: [3] 0.274

NOTCH1 (UniProt P46531)
inactive: vemurafenib 0.017 | [1] 0.019 | [8] 0.034 | volasertib 0.018 | [2] -0.016 | [3] 0.006 | [4] -0.066 | saracatinib 0.048 | sotrastaurin 0.026 | alvocidib -0.018 | Tubastatin A 0.024 | [5] -0.034 | defactinib 0.068 | [6] -0.004 | encorafenib 0.134 | [9] -0.251 | alisertib -0.135 | [7] -0.014 | gefitinib 0.05

NRIP3 (UniProt Q9NQ35)
inactive: vemurafenib 0.191 | [8] 0.065 | [3] 0.002 | [4] 0.11 | alvocidib 0.078 | defactinib -0.159 | encorafenib 0.166 | [9] 0.129

NT5C (UniProt Q8TCD5)
inactive: vemurafenib -0.011 | [1] 0.032 | barasertib -0.091 | [8] -0.038 | volasertib -0.023 | [2] 0.016 | [3] 0.261 | [4] 0 | saracatinib 0 | sotrastaurin 0.002 | alvocidib 0.004 | Tubastatin A 0.033 | [5] 0.009 | defactinib -0.019 | [6] 0.002 | encorafenib -0.035 | [9] -0.026 | alisertib 0.074 | [7] -0.068 | gefitinib 0.05

NUDT18 (UniProt Q6ZVK8)
inactive: vemurafenib -0.025 | [8] 0.039 | [2] -0.391 | [3] -0.038 | [4] 0.051 | sotrastaurin -0.064 | alvocidib -0.068 | Tubastatin A 0.324 | [5] -0.08 | defactinib 0.004 | encorafenib -0.054 | [9] 0.198

NOL3 isoform 3 (UniProt O60936)
inactive: vemurafenib -0.04 | [1] -0.002 | volasertib 0.037 | [2] -0.101 | saracatinib -0.09 | sotrastaurin -0.048 | Tubastatin A -0.033 | [5] -0.061 | defactinib 0.165 | [6] -0.345 | alisertib -0.007 | [7] 0.031 | gefitinib -0.138

NSRP1 (UniProt Q9H0G5)
inactive: vemurafenib -0.024 | [1] -0.007 | barasertib 0.007 | [8] 0.078 | volasertib 0.01 | [2] -0.023 | [3] 0.096 | [4] -0.042 | saracatinib 0.059 | sotrastaurin 0.038 | alvocidib 0 | Tubastatin A -0.007 | [5] 0.038 | defactinib 0.003 | [6] 0.014 | encorafenib 0.022 | [9] -0.013 | alisertib -0.021 | [7] -0.007 | gefitinib -0.033

NSD2 (UniProt O96028)
inactive: vemurafenib 0.184 | [1] 0.229 | barasertib -0.141 | [8] 0.132 | volasertib -0.673 | [2] -0.112 | [3] 0.147 | [4] -0.12 | sotrastaurin 0.066 | alvocidib 0.013 | Tubastatin A 0.058 | defactinib -0.156 | encorafenib 0.044 | [9] 0.16 | alisertib 0.043 | [7] 0.039 | gefitinib 0.104

NUDT8 (UniProt Q8WV74)
inactive: vemurafenib 0.084 | [1] -0.035 | [8] 0.05 | volasertib 0.008 | [2] 0.011 | [3] -0.367 | [4] 0.054 | saracatinib -0.003 | sotrastaurin -0.157 | alvocidib 0.001 | Tubastatin A 0.053 | [5] -0.114 | defactinib 0.025 | [6] 0.081 | encorafenib -0.059 | [9] -0.043 | alisertib -0.096 | [7] 0.061 | gefitinib 0.28

NME3 (UniProt H3BPR2)
inactive: [1] 0.141 | volasertib 0 | [7] 0.185

NUB1 isoform 2 (UniProt Q9Y5A7)
inactive: sotrastaurin -0.003

NPLOC4 (UniProt I3L3I1)
inactive: barasertib 0.125 | [8] 0.104 | saracatinib 0.152 | sotrastaurin -0.108 | [6] 0.799 | encorafenib 0.014 | [9] -0.143

NUFIP1 (UniProt Q9UHK0)
inactive: barasertib -0.109 | [8] 0.003 | [2] -0.097 | [3] 0.041 | [4] -0.033 | saracatinib 0.002 | sotrastaurin -0.002 | alvocidib 0.033 | Tubastatin A -0.019 | [6] -0.068 | encorafenib -0.011 | [9] 0.028 | alisertib -0.077 | gefitinib 0.243

NR2F6 (UniProt P10588)
inactive: [8] 0.099 | [2] -0.024 | saracatinib -0.123 | sotrastaurin 0.002 | Tubastatin A 0.007 | [6] -0.159 | encorafenib 0.208 | [9] -0.223 | alisertib -0.009 | gefitinib -0.096
